For 42 sequences, binding signal results are on record in publication PMC7819943, “Rice protein-binding microarrays: a tool to detect cis-acting elements near promoter regions in rice”.

Some of the results follow.

For this test, the target named is T1, OsSMF1 (Oryza sativa, UniProt Q6ZLB0 1-436).
T1 sequence: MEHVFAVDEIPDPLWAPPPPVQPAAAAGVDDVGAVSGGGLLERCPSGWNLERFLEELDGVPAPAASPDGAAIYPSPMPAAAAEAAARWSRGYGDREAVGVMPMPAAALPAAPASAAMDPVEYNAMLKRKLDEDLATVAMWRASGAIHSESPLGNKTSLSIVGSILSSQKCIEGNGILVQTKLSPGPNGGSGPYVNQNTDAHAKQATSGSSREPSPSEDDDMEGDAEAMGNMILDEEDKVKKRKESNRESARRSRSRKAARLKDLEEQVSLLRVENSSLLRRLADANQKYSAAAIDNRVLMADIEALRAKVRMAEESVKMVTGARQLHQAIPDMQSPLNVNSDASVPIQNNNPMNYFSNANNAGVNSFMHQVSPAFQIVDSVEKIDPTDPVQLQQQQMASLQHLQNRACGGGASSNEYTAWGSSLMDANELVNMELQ
Description: protein-binding microarray (RPBM); PBS, 2% BSA, 51.3 ng/ul salmon testes DNA, 50 uM zinc acetate, 200 nM TF, 25 C, 1 h; high values mean tight binding. Conditions: protein: recombinant; tags: N-terminal polyhistidine and DsRed monomer fusion (pET32a); chain copies: 2; label: CyDye5-dUTP incorporated in the synthesized complementary strand; 3' TTTTT single-stranded linker to array surface; dsDNA, one strand shown. Put shortly: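 Ni–NTA purification followed expression in E. coli BL21-CodonPlus of transcription factors fused N-terminally to a polyhistidine tag and DsRed. At 200 nM in PBS with 2% BSA, salmon testes DNA and 50 µM zinc acetate, the protein was incubated for 1 h at 25 °C with a custom Agilent array that had been primer-extended with Cy5-dUTP and blocked with 2% BSA. After washing, the array was read on an Axon 4000B scanner. The binding signal is per-feature fluorescence intensity in arbitrary units.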
Regarding “TGGAGAGGGAACCAACAACAAACAACCAGCTGCCTCGCCGCGGAGTCACCTAGTGCAG”, the binding signal was 47200 fluorescence intensity (a.u.).
In the case of “GCCCGTCCATCCAACGCTCGGACACCACGCGGGGAGGCTCCGGAGTCACCTAGTGCAG” it was 3580 fluorescence intensity (a.u.); in that of “TTAATCATGCATAAAGATGAACATTACATGCATGCATGGTCGGAGTCACCTAGTGCAG”, 26000 fluorescence intensity (a.u.); in that of “GGATGGCCTCCCCAGATGCGGTTGTTAGTTGTGAGGCCGCCGGAGTCACCTAGTGCAG”, 24800 fluorescence intensity (a.u.).
As for “GAATCTGGGAGCTGGAGCCCTGCCAAACAGGCCCTAATGTCGGAGTCACCTAGTGCAG”, the figure is 4910 fluorescence intensity (a.u.); as for “TTGGAAAGTTCATTGCCACGTCCCAAATATATACTCTCTTCGGAGTCACCTAGTGCAG”, 5750 fluorescence intensity (a.u.).
In the case of “ACTTTGCAGCGAAGTAGCGTTGGGCTTTGGGCTCACGGGCCGGAGTCACCTAGTGCAG” it was 24900 fluorescence intensity (a.u.); in that of “GGCTGCTTTGATTAACTCGATCATGAGTCAATGGACCATGCGGAGTCACCTAGTGCAG”, 4910 fluorescence intensity (a.u.).
Consider “CCGCATCCTCTTCCACGCAAACGGCCTCTGCGCGCCGCCGCGGAGTCACCTAGTGCAG”, for which the binding signal was 3290 fluorescence intensity (a.u.).
As for “CTCTGTGCGCAAGTCCACACGTCAACCATGGCCGTACGTACGGAGTCACCTAGTGCAG”, the figure is 7230 fluorescence intensity (a.u.); as for “GTATATTGGTGCAGCACCATATTGTGTTGTAGTGTAGTGACGGAGTCACCTAGTGCAG”, 3360 fluorescence intensity (a.u.); as for “TATACAAGTGATCCAAACACGTAAGATAAGCTGGGGCCAGCGGAGTCACCTAGTGCAG”, 24000 fluorescence intensity (a.u.).
As for “ATAAATACTTAATTAATCATATAATAAGAGAGACTTTATTCGGAGTCACCTAGTGCAG”, the figure is 15900 fluorescence intensity (a.u.).
In the case of “GGTATGGGGACGATTTTGTACCCGCGATGGGTGTGAGTATCGGAGTCACCTAGTGCAG” it was 8740 fluorescence intensity (a.u.); in that of “ACATCCCCGTACTATACGAGTCTACGACGATGACTATGCTCGGAGTCACCTAGTGCAG”, 3150 fluorescence intensity (a.u.).
“GGTCTCCGTCCAAGTCAATTAGTCAAAATTATGCATCTAGCGGAGTCACCTAGTGCAG”: the binding signal is 3520 fluorescence intensity (a.u.).
As for “GAACCCCATGCCCGCCACACGGATCCGCGCGCACCCATGGCGGAGTCACCTAGTGCAG”, the figure is 4250 fluorescence intensity (a.u.); as for “TGCGAGGTGGTGGTGATTGCTTCGTCGGCTGTTGATTTCTCGGAGTCACCTAGTGCAG”, 3300 fluorescence intensity (a.u.); as for “GCCGCTCGTCGACGTGGACATTCCCCGGCCCAACAACTGACGGAGTCACCTAGTGCAG”, 8110 fluorescence intensity (a.u.).
“GTGGCATGCTTTTCAAACTGCTAAACGGTGTGACTCGTGCCGGAGTCACCTAGTGCAG”: the binding signal is 9580 fluorescence intensity (a.u.).
In the case of “CCACACAGTCTACCTATACCTACTACTACCTGTCATCTTCCGGAGTCACCTAGTGCAG” it was 20600 fluorescence intensity (a.u.); in that of “ACAACAAACTACTCAAACTGTGGTAGCTGTCGTGGCGAGCCGGAGTCACCTAGTGCAG”, 4340 fluorescence intensity (a.u.).
In the case of “TTGTTGGAATCAACTAGTCAGCATCTGCGTGCACACGGAGCGGAGTCACCTAGTGCAG” it was 5920 fluorescence intensity (a.u.); in that of “GGAGCCGTGGAGGAGTCGATGCCGTGGTGTGCGCGCGCGTCGGAGTCACCTAGTGCAG”, 3820 fluorescence intensity (a.u.); in that of “CACCTCTTCTTGTCATGACTCCTAACAGTCAAGTTCCAACCGGAGTCACCTAGTGCAG”, 3250 fluorescence intensity (a.u.).
In the case of “AATATCATCCGTGTCACTACCTAGCTCCTGCATGCTCTGCCGGAGTCACCTAGTGCAG” it was 4560 fluorescence intensity (a.u.).
With “TCCGTTCTCGGCTCCCCGTCAGCTTGGTTCGCAGCGGTGTCGGAGTCACCTAGTGCAG”, the binding signal is 4600 fluorescence intensity (a.u.).
As for “GATTCGGGAGGAAGAAGACCAGGTGCGCCAGCGTGGTGCACGGAGTCACCTAGTGCAG”, the figure is 6060 fluorescence intensity (a.u.); as for “AGGTTGCGCGGAGACGACGGATCCATCCACCGCCACCACGCGGAGTCACCTAGTGCAG”, 3460 fluorescence intensity (a.u.); as for “AATTAATTAACGTGTGTGCTTGCACAGCAGCCGACGTGTTCGGAGTCACCTAGTGCAG”, 4800 fluorescence intensity (a.u.).
As for “GAAAGTTGCTGCGAACATACGTGATGACGCGACTAAAGCTCGGAGTCACCTAGTGCAG”, the figure is 5210 fluorescence intensity (a.u.); as for “CACACGGCTCAAACGCGCATACACGTAAACACACAAGCTTCGGAGTCACCTAGTGCAG”, 3250 fluorescence intensity (a.u.).
As for “CTAATTATTAGCACTCCGGATCCAAACATGACTGTGTCAACGGAGTCACCTAGTGCAG”, the figure is 3740 fluorescence intensity (a.u.).
As for “AGGTGGAGGGATGCGAAGGGGCGCCGTGACGCTGCAGCGGCGGAGTCACCTAGTGCAG”, the binding signal was 3240 fluorescence intensity (a.u.).
On to “TACTCCTCGTCATTTTGGTTTTGGTTTTGGTTTGGGTGGTCGGAGTCACCTAGTGCAG”, for which the binding signal was 3690 fluorescence intensity (a.u.).
On to “CACGCTGACTCAACCAGATTGATAATAGTCAACTCGTCACCGGAGTCACCTAGTGCAG”, for which the binding signal was 5040 fluorescence intensity (a.u.).
In the case of “GAGACAACAGCACAGGACAGCGCAGGGTGGACTCGAGGTGCGGAGTCACCTAGTGCAG” it was 3170 fluorescence intensity (a.u.); in that of “GACCATCACGCCGACGTTGTTGACGATGACGCAGAGCTAGCGGAGTCACCTAGTGCAG”, 4290 fluorescence intensity (a.u.); in that of “TTTTAGAATTCCTATTATACGTCACTACTACACTTCATTACGGAGTCACCTAGTGCAG”, 4900 fluorescence intensity (a.u.).
On to “ATACACTTCACTCACACACCGCCCCGTCATTGCCCCGGCGCGGAGTCACCTAGTGCAG”, for which the binding signal is 6620 fluorescence intensity (a.u.).
In the case of “GATCCATGTATGAGTTGGATTTTAAGTTCGTTTGCTTTTCCGGAGTCACCTAGTGCAG” it was 4010 fluorescence intensity (a.u.); in that of “ACGCCGTGGGCGCCGTCCTTGGCCGCCGCGGCGAAGTCCCCGGAGTCACCTAGTGCAG”, 27800 fluorescence intensity (a.u.).
